# Test results as given in the supplement of paper PMC8728848.
# This is one part of the list.
# B1: M6PR (Bos taurus), P11456 (protein)
# chain: MMSPLHSSWRTGLLLLLLFSVAVRESWQTEEKTCDLVGEKGKESEKELALLKRLTPLFNKSFESTVGQSPDMYSYVFRVCREAGNHSSGAGLVQINKSNGKETVVGRFNETQIFNGSNWIMLIYKGGDEYDNHCGREQRRAVVMISCNRHTLADNFN
# Experiments:
# Experiment in all cases: glycan array binding signal (z-score within array); higher = stronger binding
# Details in all cases: glycan notation: IUPAC condensed, linker removed
# Gal3S(b1-4)GlcNAc = molecular target: Gal3S(b1-4)GlcNAc
# In short: (§1)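 Columns mapping to the same glycan were averaged after glycan names were converted to IUPAC-condensed notation. The data come from 3228 arrays in the Consortium for Functional Glycomics database, limited to those with an available protein sequence. Binding is reported as a within-array Z-score averaged across arrays of one protein sequence and across linkers.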
# Gal3S(b1-4)GlcNAc6S = molecular target: Gal3S(b1-4)GlcNAc6S
# In short: as §1
# [1] = molecular target: Gal3S(b1-4)[Fuc(a1-3)]Glc
# In short: as §1
# Gal3S6S(b1-4)GlcNAc = molecular target: Gal3S6S(b1-4)GlcNAc
# In short: as §1
# Gal3S6S(b1-4)GlcNAc6S = molecular target: Gal3S6S(b1-4)GlcNAc6S
# In short: as §1
# Gal4S(b1-4)GlcNAc = molecular target: Gal4S(b1-4)GlcNAc
# In short: as §1
# Gal4S6S(b1-4)GlcNAc = molecular target: Gal4S6S(b1-4)GlcNAc
# In short: as §1
# Gal6S(b1-4)Glc = molecular target: Gal6S(b1-4)Glc
# In short: as §1
# Gal6S(b1-4)Glc6S = molecular target: Gal6S(b1-4)Glc6S
# In short: as §1
# Gal6S(b1-4)GlcNAc = molecular target: Gal6S(b1-4)GlcNAc
# In short: as §1
# GalNAc(a1-3)Gal = molecular target: GalNAc(a1-3)Gal
# In short: as §1
# GalNAc(a1-3)GalNAc = molecular target: GalNAc(a1-3)GalNAc
# In short: as §1
# [2] = molecular target: GalNAc(b1-3)Gal(a1-4)Gal(b1-4)GlcNAc
# In short: as §1
# GalNAc(b1-3)GalNAc = molecular target: GalNAc(b1-3)GalNAc
# In short: as §1
# GalNAc(b1-4)GlcNAc = molecular target: GalNAc(b1-4)GlcNAc
# In short: as §1
# Glc(a1-4)Glc = molecular target: Glc(a1-4)Glc
# In short: as §1
# Glc(a1-6)Glc(a1-6)Glc = molecular target: Glc(a1-6)Glc(a1-6)Glc
# In short: as §1
# Glc(b1-4)Glc = molecular target: Glc(b1-4)Glc
# In short: as §1
# Glc(b1-6)Glc = molecular target: Glc(b1-6)Glc
# In short: as §1
# GlcA(b1-3)Gal = molecular target: GlcA(b1-3)Gal
# In short: as §1
# GlcA(b1-6)Gal = molecular target: GlcA(b1-6)Gal
# In short: as §1
# [3] = molecular target: GlcNAc(a1-3)Gal(b1-4)GlcNAc
# In short: as §1
# [4] = molecular target: GlcNAc(a1-6)Gal(b1-4)GlcNAc
# In short: as §1
# [5] = molecular target: GlcNAc(b1-2)Gal(b1-3)GalNAc
# In short: as §1
# [6] = molecular target: GlcNAc(b1-2)Man(a1-3)[GlcNAc(b1-2)Man(a1-6)]Man(b1-4)GlcNAc(b1-4)GlcNAc
# In short: as §1
# GlcNAc(b1-3)Gal = molecular target: GlcNAc(b1-3)Gal
# In short: as §1
# [7] = molecular target: GlcNAc(b1-3)Gal(b1-3)GalNAc
# In short: as §1
# GlcNAc(b1-3)Gal(b1-4)Glc = molecular target: GlcNAc(b1-3)Gal(b1-4)Glc
# In short: as §1
# [8] = molecular target: GlcNAc(b1-3)Gal(b1-4)GlcNAc
# In short: as §1
# [9] = molecular target: GlcNAc(b1-3)Gal(b1-4)GlcNAc(b1-3)Gal(b1-4)GlcNAc
# In short: as §1
# GlcNAc(b1-3)GalNAc = molecular target: GlcNAc(b1-3)GalNAc
# In short: as §1
# [10] = molecular target: GlcNAc(b1-3)[GlcNAc(b1-4)][GlcNAc(b1-6)]GlcNAc
# In short: as §1
# [11] = molecular target: GlcNAc(b1-3)[GlcNAc(b1-6)]Gal(b1-4)GlcNAc
# In short: as §1
# [12] = molecular target: GlcNAc(b1-3)[GlcNAc(b1-6)]GalNAc
# In short: as §1
# [13] = molecular target: GlcNAc(b1-4)Gal(b1-4)GlcNAc
# In short: as §1
# [14] = molecular target: GlcNAc(b1-4)GlcNAc(b1-4)GlcNAc
# In short: as §1
# [15] = molecular target: GlcNAc(b1-4)GlcNAc(b1-4)GlcNAc(b1-4)GlcNAc(b1-4)GlcNAc
# In short: as §1
# [16] = molecular target: GlcNAc(b1-4)GlcNAc(b1-4)GlcNAc(b1-4)GlcNAc(b1-4)GlcNAc(b1-4)GlcNAc
# In short: as §1
binder,measurement,setting,value
B1,glycan array binding signal (z-score),Gal3S(b1-4)GlcNAc,0.023
same,glycan array binding signal (z-score),Gal3S(b1-4)GlcNAc6S,-0.1
same,glycan array binding signal (z-score),[1],-0.883
same,glycan array binding signal (z-score),Gal3S6S(b1-4)GlcNAc,0.638
same,glycan array binding signal (z-score),Gal3S6S(b1-4)GlcNAc6S,0.585
same,glycan array binding signal (z-score),Gal4S(b1-4)GlcNAc,0.501
same,glycan array binding signal (z-score),Gal4S6S(b1-4)GlcNAc,-0.147
same,glycan array binding signal (z-score),Gal6S(b1-4)Glc,-0.162
same,glycan array binding signal (z-score),Gal6S(b1-4)Glc6S,-0.33
same,glycan array binding signal (z-score),Gal6S(b1-4)GlcNAc,-0.069
same,glycan array binding signal (z-score),GalNAc(a1-3)Gal,1.42
same,glycan array binding signal (z-score),GalNAc(a1-3)GalNAc,0.045
same,glycan array binding signal (z-score),[2],0.285
same,glycan array binding signal (z-score),GalNAc(b1-3)GalNAc,-0.259
same,glycan array binding signal (z-score),GalNAc(b1-4)GlcNAc,0.215
same,glycan array binding signal (z-score),Glc(a1-4)Glc,-0.41
same,glycan array binding signal (z-score),Glc(a1-6)Glc(a1-6)Glc,-0.78
same,glycan array binding signal (z-score),Glc(b1-4)Glc,-0.664
same,glycan array binding signal (z-score),Glc(b1-6)Glc,-0.565
same,glycan array binding signal (z-score),GlcA(b1-3)Gal,0.773
same,glycan array binding signal (z-score),GlcA(b1-6)Gal,-0.256
same,glycan array binding signal (z-score),[3],-0.721
same,glycan array binding signal (z-score),[4],-0.724
same,glycan array binding signal (z-score),[5],0.857
same,glycan array binding signal (z-score),[6],0.08
same,glycan array binding signal (z-score),GlcNAc(b1-3)Gal,0.16
same,glycan array binding signal (z-score),[7],-0.067
same,glycan array binding signal (z-score),GlcNAc(b1-3)Gal(b1-4)Glc,1.12
same,glycan array binding signal (z-score),[8],-0.748
same,glycan array binding signal (z-score),[9],-0.75
same,glycan array binding signal (z-score),GlcNAc(b1-3)GalNAc,-0.669
same,glycan array binding signal (z-score),[10],0.293
same,glycan array binding signal (z-score),[11],0.302
same,glycan array binding signal (z-score),[12],0.101
same,glycan array binding signal (z-score),[13],-0.509
same,glycan array binding signal (z-score),[14],-0.632
same,glycan array binding signal (z-score),[15],-0.585
same,glycan array binding signal (z-score),[16],-0.509

# A different layout for some results above.
binder | measurement | setting | value
B1 | glycan array binding signal (z-score) | [6] | 0.08
same | glycan array binding signal (z-score) | GlcNAc(b1-3)Gal | 0.16
